“And” between values parts separate entries of the source, which are not always exact repeats. Equal entries are not always repeated. Further values from the same series stand in other lists.
Experiment: Plasma pharmacokinetics of BI 187004 after single oral doses (LC–MS/MS)
Conditions: for BI 187004 plasma concentrations: individual subjects

In the case of `N#Cc1ccc2c(c1)[C@H]1CCCN(C(=O)c3ccc4[nH]cnc4c3)[C@H]1C2` [BI 187004], the “Plasma concentration, individual subjects” value (5 mg single oral, planned time 0.5 h) is reported as 180 nmol/L and 161 nmol/L and 128 nmol/L, the “Plasma concentration, individual subjects” value (5 mg single oral, planned time 1 h) is reported as 184 nmol/L and 191 nmol/L and 142 nmol/L and the “Plasma concentration, individual subjects” value (5 mg single oral, planned time 1.5 h) is reported as 143 nmol/L and 155 nmol/L and 124 nmol/L. For the same compound, the “Plasma concentration, individual subjects” value (5 mg single oral, planned time 2 h) was 140 nmol/L and 142 nmol/L and 109 nmol/L, the “Plasma concentration, individual subjects” value (5 mg single oral, planned time 2.5 h) was 139 nmol/L and 144 nmol/L and 120 nmol/L and the “Plasma concentration, individual subjects” value (5 mg single oral, planned time 3 h) was 130 nmol/L and 138 nmol/L and 107 nmol/L. The “Plasma concentration, individual subjects” value (5 mg single oral, planned time 4 h) was 124 nmol/L and 135 nmol/L and 95.1 nmol/L, the “Plasma concentration, individual subjects” value (5 mg single oral, planned time 5 h) was 109 nmol/L and 122 nmol/L and 99.2 nmol/L and the “Plasma concentration, individual subjects” value (5 mg single oral, planned time 6 h) was 106 nmol/L and 77.0 nmol/L. For the same compound, the “Plasma concentration, individual subjects” value (5 mg single oral, planned time 8 h) was 93.4 nmol/L and 69.8 nmol/L, the “Plasma concentration, individual subjects” value (5 mg single oral, planned time 10 h) was 77.9 nmol/L and 55.7 nmol/L and the “Plasma concentration, individual subjects” value (5 mg single oral, planned time 12 h) was 49.0 nmol/L and 68.0 nmol/L and 43.3 nmol/L. The “Plasma concentration, individual subjects” value (5 mg single oral, planned time 24 h) was 33.4 nmol/L and 43.0 nmol/L and 21.9 nmol/L, the “Plasma concentration, individual subjects” value (5 mg single oral, planned time 36 h) was 16.9 nmol/L and 20.8 nmol/L and 8.76 nmol/L and the “Plasma concentration, individual subjects” value (5 mg single oral, planned time 48 h) was 10.7 nmol/L and 15.9 nmol/L and 8.90 nmol/L. For the same compound, the “Plasma concentration, individual subjects” value (5 mg single oral, planned time 72 h) was 6.47 nmol/L and 9.09 nmol/L and 5.40 nmol/L, the “Plasma concentration, individual subjects” value (5 mg single oral, planned time 96 h) was 4.03 nmol/L and 5.22 nmol/L and 4.10 nmol/L and the “Plasma concentration, individual subjects” value (10 mg single oral, planned time 0.5 h) was 252 nmol/L and 44.7 nmol/L and 460 nmol/L and 560 nmol/L and 605 nmol/L and 266 nmol/L. The “Plasma concentration, individual subjects” value (10 mg single oral, planned time 1 h) was 397 nmol/L and 402 nmol/L and 424 nmol/L and 467 nmol/L and 363 nmol/L, the “Plasma concentration, individual subjects” value (10 mg single oral, planned time 1.5 h) was 437 nmol/L and 420 nmol/L and 360 nmol/L and 439 nmol/L and 432 nmol/L and the “Plasma concentration, individual subjects” value (10 mg single oral, planned time 2 h) was 403 nmol/L and 349 nmol/L and 313 nmol/L and 395 nmol/L and 396 nmol/L. For the same compound, the “Plasma concentration, individual subjects” value (10 mg single oral, planned time 2.5 h) was 362 nmol/L and 323 nmol/L and 292 nmol/L and 399 nmol/L and 438 nmol/L, the “Plasma concentration, individual subjects” value (10 mg single oral, planned time 3 h) was 323 nmol/L and 304 nmol/L and 283 nmol/L and 344 nmol/L and 373 nmol/L and the “Plasma concentration, individual subjects” value (10 mg single oral, planned time 4 h) was 280 nmol/L and 385 nmol/L and 249 nmol/L and 351 nmol/L and 401 nmol/L. The “Plasma concentration, individual subjects” value (10 mg single oral, planned time 5 h) was 223 nmol/L and 206 nmol/L and 229 nmol/L and 314 nmol/L and 335 nmol/L, the “Plasma concentration, individual subjects” value (10 mg single oral, planned time 6 h) was 214 nmol/L and 204 nmol/L and 271 nmol/L and 302 nmol/L and the “Plasma concentration, individual subjects” value (10 mg single oral, planned time 8 h) was 170 nmol/L and 199 nmol/L and 148 nmol/L and 234 nmol/L and 284 nmol/L. For the same compound, the “Plasma concentration, individual subjects” value (10 mg single oral, planned time 10 h) was 231 nmol/L and 118 nmol/L and 150 nmol/L and 132 nmol/L and 208 nmol/L and 250 nmol/L, the “Plasma concentration, individual subjects” value (10 mg single oral, planned time 12 h) was 195 nmol/L and 115 nmol/L and 121 nmol/L and 84.7 nmol/L and 187 nmol/L and 173 nmol/L and the “Plasma concentration, individual subjects” value (10 mg single oral, planned time 24 h) was 112 nmol/L and 46.4 nmol/L and 67.2 nmol/L and 39.1 nmol/L and 92.8 nmol/L and 104 nmol/L. For the same compound, the “Plasma concentration, individual subjects” value (10 mg single oral, planned time 36 h) was 47.8 nmol/L and 14.1 nmol/L and 21.6 nmol/L and 12.8 nmol/L and 37.5 nmol/L and 47.4 nmol/L, the “Plasma concentration, individual subjects” value (10 mg single oral, planned time 48 h) was 35.7 nmol/L and 12.8 nmol/L and 15.5 nmol/L and 11.2 nmol/L and 29.2 nmol/L and 32.5 nmol/L and the “Plasma concentration, individual subjects” value (10 mg single oral, planned time 72 h) was 14.8 nmol/L and 6.84 nmol/L and 8.55 nmol/L and 5.11* nmol/L and 9.36 nmol/L and 13.9 nmol/L. For the same compound, the “Plasma concentration, individual subjects” value (10 mg single oral, planned time 96 h) was 8.06 nmol/L and 3.64 nmol/L and 5.09 nmol/L and 3.04* nmol/L and 4.52 nmol/L and 7.31 nmol/L, the “BI 187004 plasma concentrations” value (20 mg single oral, planned time 0.5 h) was 989 nmol/L and 34.3 nmol/L and 80.7 nmol/L and 338 nmol/L and 91.1 nmol/L and 1050 nmol/L and the “BI 187004 plasma concentrations” value (20 mg single oral, planned time 1 h) was 1130 nmol/L and 236 nmol/L and 1100 nmol/L and 750 nmol/L and 965 nmol/L. The “BI 187004 plasma concentrations” value (20 mg single oral, planned time 1.5 h) was 919 nmol/L and 842 nmol/L and 1050 nmol/L and 824 nmol/L and 969 nmol/L, the “BI 187004 plasma concentrations” value (20 mg single oral, planned time 2 h) was 832 nmol/L and 784 nmol/L and 966 nmol/L and 630 nmol/L and 947 nmol/L and the “BI 187004 plasma concentrations” value (20 mg single oral, planned time 2.5 h) was 783 nmol/L and 710 nmol/L and 1040 nmol/L and 619 nmol/L and 948 nmol/L. The “BI 187004 plasma concentrations” value (20 mg single oral, planned time 3 h) was 663 nmol/L and 586 nmol/L and 877 nmol/L and 610 nmol/L and 879 nmol/L, the “BI 187004 plasma concentrations” value (20 mg single oral, planned time 4 h) was 663 nmol/L and 537 nmol/L and 885 nmol/L and 531 nmol/L and 833 nmol/L and the “BI 187004 plasma concentrations” value (20 mg single oral, planned time 5 h) was 512 nmol/L and 463 nmol/L and 883 nmol/L and 535 nmol/L and 753 nmol/L. For the same compound, the “BI 187004 plasma concentrations” value (20 mg single oral, planned time 6 h) was 847 nmol/L and 447 nmol/L and 420 nmol/L and 611 nmol/L and 427 nmol/L and 646 nmol/L, the “BI 187004 plasma concentrations” value (20 mg single oral, planned time 8 h) was 378 nmol/L and 359 nmol/L and 631 nmol/L and 418 nmol/L and 354 nmol/L and the “BI 187004 plasma concentrations” value (20 mg single oral, planned time 10 h) was 524 nmol/L and 335 nmol/L and 253 nmol/L and 529 nmol/L and 288 nmol/L and 461 nmol/L. For the same compound, the “BI 187004 plasma concentrations” value (20 mg single oral, planned time 12 h) was 450 nmol/L and 251 nmol/L and 234 nmol/L and 457 nmol/L and 221 nmol/L and 370 nmol/L, the “BI 187004 plasma concentrations” value (20 mg single oral, planned time 24 h) was 353 nmol/L and 107 nmol/L and 95.1 nmol/L and 281 nmol/L and 85.8 nmol/L and 203 nmol/L and the “BI 187004 plasma concentrations” value (20 mg single oral, planned time 36 h) was 145 nmol/L and 33.6 nmol/L and 27.8 nmol/L and 96.8 nmol/L and 32.3 nmol/L and 68.5 nmol/L. The “BI 187004 plasma concentrations” value (20 mg single oral, planned time 48 h) was 104 nmol/L and 21.7 nmol/L and 19.4 nmol/L and 65.7 nmol/L and 15.8 nmol/L and 47.0 nmol/L, the “BI 187004 plasma concentrations” value (20 mg single oral, planned time 72 h) was 43.9 nmol/L and 9.53 nmol/L and 25.9 nmol/L and 6.98 nmol/L and 16.4 nmol/L and the “BI 187004 plasma concentrations” value (20 mg single oral, planned time 96 h) was 18.2 nmol/L and 6.00 nmol/L and 5.78 nmol/L and 12.4 nmol/L and 9.48 nmol/L. The “BI 187004 plasma concentrations” value (40 mg single oral, planned time 0.5 h) was 2530 nmol/L and 2400 nmol/L and 2460 nmol/L and 1110 nmol/L and 487 nmol/L and 1560 nmol/L, the “BI 187004 plasma concentrations” value (40 mg single oral, planned time 1 h) was 2820 nmol/L and 2490 nmol/L and 2320 nmol/L and 2690 nmol/L and 974 nmol/L and 1730 nmol/L and the “BI 187004 plasma concentrations” value (40 mg single oral, planned time 1.5 h) was 2610 nmol/L and 2240 nmol/L and 2220 nmol/L and 2090 nmol/L and 1020 nmol/L and 1540 nmol/L. The “BI 187004 plasma concentrations” value (40 mg single oral, planned time 2 h) was 2410 nmol/L and 1900 nmol/L and 2020 nmol/L and 1820 nmol/L and 1040 nmol/L and 1360 nmol/L, the “BI 187004 plasma concentrations” value (40 mg single oral, planned time 2.5 h) was 2010 nmol/L and 1920 nmol/L and 1820 nmol/L and 1160 nmol/L and 1420 nmol/L and the “BI 187004 plasma concentrations” value (40 mg single oral, planned time 3 h) was 1810 nmol/L and 1440 nmol/L and 1430 nmol/L and 1130 nmol/L. For the same compound, the “BI 187004 plasma concentrations” value (40 mg single oral, planned time 4 h) was 1650 nmol/L and 1700 nmol/L and 1410 nmol/L and 1320 nmol/L and 1020 nmol/L, the “BI 187004 plasma concentrations” value (40 mg single oral, planned time 5 h) was 1610 nmol/L and 1550 nmol/L and 1160 nmol/L and 1250 nmol/L and 888 nmol/L and the “BI 187004 plasma concentrations” value (40 mg single oral, planned time 6 h) was 1320 nmol/L and 1400 nmol/L and 985 nmol/L and 1020 nmol/L and 736 nmol/L. The “BI 187004 plasma concentrations” value (40 mg single oral, planned time 8 h) was 1190 nmol/L and 1100 nmol/L and 834 nmol/L and 973 nmol/L and 606 nmol/L, the “BI 187004 plasma concentrations” value (40 mg single oral, planned time 10 h) was 806 nmol/L and 1140 nmol/L and 975 nmol/L and 738 nmol/L and 823 nmol/L and 467 nmol/L and the “BI 187004 plasma concentrations” value (40 mg single oral, planned time 12 h) was 663 nmol/L and 984 nmol/L and 838 nmol/L and 538 nmol/L and 716 nmol/L and 359 nmol/L. The “BI 187004 plasma concentrations” value (40 mg single oral, planned time 24 h) was 291 nmol/L and 625 nmol/L and 436 nmol/L and 215 nmol/L and 379 nmol/L and 169 nmol/L, the “BI 187004 plasma concentrations” value (40 mg single oral, planned time 36 h) was 99.1 nmol/L and 377 nmol/L and 244 nmol/L and 70.1 nmol/L and 138 nmol/L and 51.5 nmol/L and the “BI 187004 plasma concentrations” value (40 mg single oral, planned time 48 h) was 60.3 nmol/L and 234 nmol/L and 143 nmol/L and 30.8 nmol/L and 72.0 nmol/L and 33.7 nmol/L. For the same compound, the “BI 187004 plasma concentrations” value (40 mg single oral, planned time 72 h) was 22.1 nmol/L and 83.4 nmol/L and 41.8 nmol/L and 8.48 nmol/L and 22.0 nmol/L and 14.2 nmol/L and the “BI 187004 plasma concentrations” value (40 mg single oral, planned time 96 h) was 13.3 nmol/L and 41.4 nmol/L and 16.0 nmol/L and 5.05 nmol/L and 8.34 nmol/L and 8.88 nmol/L.
